Results taken from EP0938338B1, “CARRIER COMPOSITION FOR INFLUENCING THE TIGHT JUNCTION PERMEABILITY” (Ghyssaert, Joris Rosa Michael, priority 1996, dated 1998).
At least one structure is not confirmed: it was looked up by name or label, or the drawing left a doubt.

Legend:
[1] = tested on: paracellular permeability; experiment: 99mTc-EDTA transfer from ligated colon segment to kidneys/urine bladder (mucosal permeability); format: in vivo, Guinea pigs
Description: Guinea pigs of either sex (250-280 g) were fed for one week with pelleted food containing 0.1% 1,8 dihydroxyanthraquimone. For this purpose the necessary amount of Anthraquinone was solved in ether and sprayed over the pelleted foods. The ether was evaporated. The calculated daily administration of 1,8 dihydroxyantraquinone was 20 mg.
The animals were fasted 6 hours before the experiment in order to empty the proximal colonic segment.
Anaesthesia was induced by peritoneal injection of ethyl urethane (0.9 g.kg^-1) and body temperature was maintained at 37°C by a thermostatically controlled heated table.
A midventral abdominal incision was made and the large intestine exposed.
In this ligated colon segment 0.25 ml ^99mTcEDTA was injected. Immediately the abdominal cavity was closed. […]
After one hour the guinea pigs were killed with chloroform and both kidneys, the ligated colon segment and the liver were isolated. […] The activity of the samples was measured by a Gamma-counter (Berthold, Gamma-sample changer BF 5300) positioned on 140 ± 10 keV. […]
Prior to the experiment 1 ml sterile eluate of a ^99mTc-generator (Sterow™ 99m Byk-Malincrodt) with an activity of 2-10 µ Ci was added to the thawed kit. After mixing the efficiency of the complex formulation was assessed by paper chromatography (Whatman N° 1) using physiological water and methylethylketone as mobile phase. […]

colon descendens = experiment: Temperature increase in ligated colon segment (sample versus reference segment); format: in vivo, Guinea pigs; conditions: other tested mitochondrial uncouplers
Description: While animals are thermally unstable during narcosis special precautions had to be taken to overcome this problem. Guinea pigs (400 g, males) were fasted 12 hours before the experiment. Anaesthesia was induced by intraperitoneal injection of Ethylurethane (0.9 g.kg^-1). The guinea pig was fixed on a thermostated operation table, monitored by a thermosensible detector rectally applied. Heating was carried out by the operation table itself and two lamps located above the animal.
In the evacuated colon descendens two segments were localised. In both segments, later called sample- and reference segment small measuring electrodes were fixed, displaying continuously the absolute temperature until 0.001°C. Two other electrodes linked by a Wheatstone bridge connection were equally located in the two segments. They measure continuously the temperature difference between the two segments.
In both segments a smooth catheter (I.D. 0.3 mm) was fixed, winded several times in the intestinal cavity. In this catheters 100 µl of the reference- and sample solution was injected.
The intestinal cavity was sealed again. This set up enables the injection of solutes at body temperature. […]
The electrodes displaying the absolute temperature were calibrated in a thermostatically controlled water bath between 36.0°C and 38.0°C. […] The rectal temperature was directly monitored in °C. […]

In the case of `O=[N+]([O-])c1ccc(O)c([N+](=O)[O-])c1` [dinitrophenol], the colonic permeability ([1]; 99mTc-EDTA in ligated colon segment, one hour, Fig. 2 / Fig. 3) was “similar, although less pronounced effect”, the “transfer from lumen to blood of 99mTc-EDTA” value ([1]; after previous administration of the uncoupler) was “significantly enhanced” and the “temperature rise” value (colon descendens) was “show the same results”.
